Measurements reported in patent publication US4450279A, “Dialkylthioxanthones” (priority 1981, dated 1984).
For at least one compound, name, drawing or mass did not settle the structure.

How the values were obtained:
[1] = Pencil hardness of pigmented coating film after passing under high-pressure mercury lamp (JIS K 5400)
Method: (§1) The following photopolymerizable resin compositions (A) and (B) were prepared. Each of the compositions was applied to an aluminum plate in a thickness of 25μ. The aluminum plate was placed on a belt conveyer moving 20 cm below an 80 W/cm high-pressure mercury lamp at a speed of 18 m/min. Relationship between the number of passage times and physical properties of the coating film was examined to obtain the results shown in Table V.
(A) Carbon black-containing composition:
Epoxy acrylate resin (Shell
(§2) Trimethylolpropane triacrylate
Hexanediol diacrylate 14.8 parts by weight
Carbon black 2.5 parts by weight
Methyldiethanolamine 2.0 parts by weight
(§3) Photopolymerization initiator of
(§4) (B) Titanium oxide-containing
(§5) Urethane acrylate resin
(§6) Butyl acrylate 18.8 parts by weight
(§7) Vinylpyrrolidone 9.4 parts by weight
(§8) Titanium oxide (rutile type)
(§9) Methyldiethanolamine 1.5 parts by weight
*^2 Pencil hardness was determined according to JISK 5400 6, 14.

[2] = Yellowing resistance of pigmented coating film; parameters: key: A: Only slight yellowing; B: Clear yellowing; C: Remarkable yellowing; details: Table V; composition (B), titanium oxide; same criteria as Table II
Method: as §1, §4, §5, §2, §6, §7, §8, §9, §3
*^3 Yellowing resistance was estimated based on the same criteria as i

In the case of `Cc1cc(C(C)C)cc2c(=O)c3ccccc3sc12` (single isomer, unassigned) [4-a', 2-isopropyl-4-methylthioxanthone], the “Pencil hardness after passing 3 times” value ([1]; composition (A), carbon black, 3 passages) is reported as 3H, the “Pencil hardness after passing 5 times” value ([1]; composition (A), carbon black, 5 passages) is reported as 6H and the “Pencil hardness after passing 6 times” value ([1]; composition (B), titanium oxide, 6 passages) is reported as 3H. The Yellowing resistance [2] was “A”.
